Publication PMC10740027
These are yes or no findings as the source states them, for the method shown. In cells and extracts the contact can be indirect. Some binding calls cover weakened binding; strength is not graded here.

Tests used:
[1] = biological target: T1, Ubiquitin Conjugating Enzyme E2O (UBE2O) (human (endogenous in HCCLM3, Hep-3B, Huh-7)) (UniProt Q9C0C9); experiment: co-IP; endogenous proteins; lysates of HCCLM3, Hep-3B and Huh-7 cells; protein A/G magnetic beads with anti-UBE2O or anti-IFIT3 antibodies; Western blot
T1 sequence: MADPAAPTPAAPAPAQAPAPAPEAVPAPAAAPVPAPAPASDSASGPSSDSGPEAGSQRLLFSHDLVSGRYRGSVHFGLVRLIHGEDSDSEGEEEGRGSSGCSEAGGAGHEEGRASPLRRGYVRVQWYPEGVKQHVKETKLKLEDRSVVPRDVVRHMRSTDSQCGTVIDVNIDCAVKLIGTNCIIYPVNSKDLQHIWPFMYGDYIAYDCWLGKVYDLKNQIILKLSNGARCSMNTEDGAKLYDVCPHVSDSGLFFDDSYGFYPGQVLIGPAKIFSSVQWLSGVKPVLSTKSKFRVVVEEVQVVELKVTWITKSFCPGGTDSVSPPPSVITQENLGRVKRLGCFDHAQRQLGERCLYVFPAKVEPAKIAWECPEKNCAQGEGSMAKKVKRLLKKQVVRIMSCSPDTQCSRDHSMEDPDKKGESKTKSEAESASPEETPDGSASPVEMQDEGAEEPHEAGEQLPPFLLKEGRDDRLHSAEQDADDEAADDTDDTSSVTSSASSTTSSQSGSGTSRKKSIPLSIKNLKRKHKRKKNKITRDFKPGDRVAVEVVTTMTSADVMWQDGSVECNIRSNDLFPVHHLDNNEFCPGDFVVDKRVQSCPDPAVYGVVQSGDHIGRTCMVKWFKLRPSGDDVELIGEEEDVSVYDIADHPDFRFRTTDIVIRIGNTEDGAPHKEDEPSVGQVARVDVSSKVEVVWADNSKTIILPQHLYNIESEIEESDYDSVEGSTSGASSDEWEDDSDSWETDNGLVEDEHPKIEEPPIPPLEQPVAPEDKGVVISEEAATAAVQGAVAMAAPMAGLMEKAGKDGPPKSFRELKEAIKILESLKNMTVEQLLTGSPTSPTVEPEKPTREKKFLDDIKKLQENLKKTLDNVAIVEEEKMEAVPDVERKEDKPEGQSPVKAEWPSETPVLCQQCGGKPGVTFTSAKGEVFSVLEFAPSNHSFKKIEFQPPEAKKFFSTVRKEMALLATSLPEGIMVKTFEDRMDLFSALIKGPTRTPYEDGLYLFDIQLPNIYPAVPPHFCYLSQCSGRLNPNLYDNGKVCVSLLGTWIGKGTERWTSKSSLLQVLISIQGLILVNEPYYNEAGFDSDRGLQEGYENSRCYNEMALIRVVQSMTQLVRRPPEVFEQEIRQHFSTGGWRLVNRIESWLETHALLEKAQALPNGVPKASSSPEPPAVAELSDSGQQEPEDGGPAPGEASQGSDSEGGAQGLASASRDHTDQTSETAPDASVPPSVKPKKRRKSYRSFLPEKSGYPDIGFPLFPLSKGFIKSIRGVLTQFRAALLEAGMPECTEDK

[2] = biological target: T2, interferon-induced protein with tetratricopeptide repeats 3 (IFIT3) (human (endogenous in HCCLM3, Hep-3B, Huh-7)) (UniProt O14879); experiment: as above
T2 sequence: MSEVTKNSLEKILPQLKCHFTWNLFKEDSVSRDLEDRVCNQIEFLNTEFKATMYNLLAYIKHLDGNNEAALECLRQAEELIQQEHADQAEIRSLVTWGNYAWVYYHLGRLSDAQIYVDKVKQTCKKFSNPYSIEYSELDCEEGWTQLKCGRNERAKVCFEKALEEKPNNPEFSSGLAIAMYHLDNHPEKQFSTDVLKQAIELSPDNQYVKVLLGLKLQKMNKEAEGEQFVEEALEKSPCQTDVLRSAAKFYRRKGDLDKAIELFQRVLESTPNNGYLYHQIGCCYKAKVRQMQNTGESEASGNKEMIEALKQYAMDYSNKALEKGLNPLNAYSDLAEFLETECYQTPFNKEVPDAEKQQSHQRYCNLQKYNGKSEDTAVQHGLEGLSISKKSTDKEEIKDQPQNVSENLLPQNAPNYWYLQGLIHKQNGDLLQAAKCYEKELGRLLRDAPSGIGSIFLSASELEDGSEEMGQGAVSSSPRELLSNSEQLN

| Binder | binding [1] | binding [2] |
| --- | --- | --- |
| interferon-induced protein with tetratricopeptide repeats 3 (IFIT3) (protein, UniProt O14879 1-490) MSEVTKNSLEKILPQLKCHFTWNLFKEDSVSRDLEDRVCNQIEFLNTEFKATMYNLLAYIKHLDGNNEAALECLRQAEELIQQEHADQAEIRSLVTWGNYAWVYYHLGRLSDAQIYVDKVKQTCKKFSNPYSIEYSELDCEEGWTQLKCGRNERAKVCFEKALEEKPNNPEFSSGLAIAMYHLDNHPEKQFSTDVLKQAIELSPDNQYVKVLLGLKLQKMNKEAEGEQFVEEALEKSPCQTDVLRSAAKFYRRKGDLDKAIELFQRVLESTPNNGYLYHQIGCCYKAKVRQMQNTGESEASGNKEMIEALKQYAMDYSNKALEKGLNPLNAYSDLAEFLETECYQTPFNKEVPDAEKQQSHQRYCNLQKYNGKSEDTAVQHGLEGLSISKKSTDKEEIKDQPQNVSENLLPQNAPNYWYLQGLIHKQNGDLLQAAKCYEKELGRLLRDAPSGIGSIFLSASELEDGSEEMGQGAVSSSPRELLSNSEQLN | binds |  |
| Ubiquitin Conjugating Enzyme E2O (UBE2O) (enzyme, UniProt Q9C0C9 1-1292) MADPAAPTPAAPAPAQAPAPAPEAVPAPAAAPVPAPAPASDSASGPSSDSGPEAGSQRLLFSHDLVSGRYRGSVHFGLVRLIHGEDSDSEGEEEGRGSSGCSEAGGAGHEEGRASPLRRGYVRVQWYPEGVKQHVKETKLKLEDRSVVPRDVVRHMRSTDSQCGTVIDVNIDCAVKLIGTNCIIYPVNSKDLQHIWPFMYGDYIAYDCWLGKVYDLKNQIILKLSNGARCSMNTEDGAKLYDVCPHVSDSGLFFDDSYGFYPGQVLIGPAKIFSSVQWLSGVKPVLSTKSKFRVVVEEVQVVELKVTWITKSFCPGGTDSVSPPPSVITQENLGRVKRLGCFDHAQRQLGERCLYVFPAKVEPAKIAWECPEKNCAQGEGSMAKKVKRLLKKQVVRIMSCSPDTQCSRDHSMEDPDKKGESKTKSEAESASPEETPDGSASPVEMQDEGAEEPHEAGEQLPPFLLKEGRDDRLHSAEQDADDEAADDTDDTSSVTSSASSTTSSQSGSGTSRKKSIPLSIKNLKRKHKRKKNKITRDFKPGDRVAVEVVTTMTSADVMWQDGSVECNIRSNDLFPVHHLDNNEFCPGDFVVDKRVQSCPDPAVYGVVQSGDHIGRTCMVKWFKLRPSGDDVELIGEEEDVSVYDIADHPDFRFRTTDIVIRIGNTEDGAPHKEDEPSVGQVARVDVSSKVEVVWADNSKTIILPQHLYNIESEIEESDYDSVEGSTSGASSDEWEDDSDSWETDNGLVEDEHPKIEEPPIPPLEQPVAPEDKGVVISEEAATAAVQGAVAMAAPMAGLMEKAGKDGPPKSFRELKEAIKILESLKNMTVEQLLTGSPTSPTVEPEKPTREKKFLDDIKKLQENLKKTLDNVAIVEEEKMEAVPDVERKEDKPEGQSPVKAEWPSETPVLCQQCGGKPGVTFTSAKGEVFSVLEFAPSNHSFKKIEFQPPEAKKFFSTVRKEMALLATSLPEGIMVKTFEDRMDLFSALIKGPTRTPYEDGLYLFDIQLPNIYPAVPPHFCYLSQCSGRLNPNLYDNGKVCVSLLGTWIGKGTERWTSKSSLLQVLISIQGLILVNEPYYNEAGFDSDRGLQEGYENSRCYNEMALIRVVQSMTQLVRRPPEVFEQEIRQHFSTGGWRLVNRIESWLETHALLEKAQALPNGVPKASSSPEPPAVAELSDSGQQEPEDGGPAPGEASQGSDSEGGAQGLASASRDHTDQTSETAPDASVPPSVKPKKRRKSYRSFLPEKSGYPDIGFPLFPLSKGFIKSIRGVLTQFRAALLEAGMPECTEDK |  | binds |
